Values quoted from earlier work, collected in patent US12115222B2, “Compositions and methods for improving the solubility of erectile dysfunction therapeutics” (Villya LLC, priority 2023, dated 2024).

Details: from the US FDA; cited from earlier work

In the case of `O=C1NS(=O)(=O)c2ccccc21` [Saccharin], the “Times Sweeter than Sucrose” value is given as 200-700.
